# These are yes or no findings as the source states them, for the method shown. Binding seen in cells or lysates may run through a third protein. Binding calls can cover weak binding; strength is not graded here. Tags and fused reporters may be left off the sequences shown.
# Chains of the proteins cited; added tags and fusions are not shown. Lines headed by an entry give the natural chain unless they say otherwise; changes in a name come on top.
# UniProt Q00987: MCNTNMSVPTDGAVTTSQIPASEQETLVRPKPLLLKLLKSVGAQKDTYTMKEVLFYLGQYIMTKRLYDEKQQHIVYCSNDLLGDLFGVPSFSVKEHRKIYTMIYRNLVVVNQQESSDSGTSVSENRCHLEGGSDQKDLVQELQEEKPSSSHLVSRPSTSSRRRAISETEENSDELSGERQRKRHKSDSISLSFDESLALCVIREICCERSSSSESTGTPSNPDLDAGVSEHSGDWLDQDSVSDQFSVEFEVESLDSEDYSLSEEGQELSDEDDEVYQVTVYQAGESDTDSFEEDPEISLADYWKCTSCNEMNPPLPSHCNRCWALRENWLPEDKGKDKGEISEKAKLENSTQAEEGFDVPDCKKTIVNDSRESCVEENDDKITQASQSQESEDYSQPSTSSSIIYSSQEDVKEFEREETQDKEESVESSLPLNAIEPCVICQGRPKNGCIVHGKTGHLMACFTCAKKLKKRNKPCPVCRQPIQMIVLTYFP
# Molecular target: T1, Flag-KL (Flag-tagged Klotho) (human) (UniProt Q9UEF7)
# T1 sequence: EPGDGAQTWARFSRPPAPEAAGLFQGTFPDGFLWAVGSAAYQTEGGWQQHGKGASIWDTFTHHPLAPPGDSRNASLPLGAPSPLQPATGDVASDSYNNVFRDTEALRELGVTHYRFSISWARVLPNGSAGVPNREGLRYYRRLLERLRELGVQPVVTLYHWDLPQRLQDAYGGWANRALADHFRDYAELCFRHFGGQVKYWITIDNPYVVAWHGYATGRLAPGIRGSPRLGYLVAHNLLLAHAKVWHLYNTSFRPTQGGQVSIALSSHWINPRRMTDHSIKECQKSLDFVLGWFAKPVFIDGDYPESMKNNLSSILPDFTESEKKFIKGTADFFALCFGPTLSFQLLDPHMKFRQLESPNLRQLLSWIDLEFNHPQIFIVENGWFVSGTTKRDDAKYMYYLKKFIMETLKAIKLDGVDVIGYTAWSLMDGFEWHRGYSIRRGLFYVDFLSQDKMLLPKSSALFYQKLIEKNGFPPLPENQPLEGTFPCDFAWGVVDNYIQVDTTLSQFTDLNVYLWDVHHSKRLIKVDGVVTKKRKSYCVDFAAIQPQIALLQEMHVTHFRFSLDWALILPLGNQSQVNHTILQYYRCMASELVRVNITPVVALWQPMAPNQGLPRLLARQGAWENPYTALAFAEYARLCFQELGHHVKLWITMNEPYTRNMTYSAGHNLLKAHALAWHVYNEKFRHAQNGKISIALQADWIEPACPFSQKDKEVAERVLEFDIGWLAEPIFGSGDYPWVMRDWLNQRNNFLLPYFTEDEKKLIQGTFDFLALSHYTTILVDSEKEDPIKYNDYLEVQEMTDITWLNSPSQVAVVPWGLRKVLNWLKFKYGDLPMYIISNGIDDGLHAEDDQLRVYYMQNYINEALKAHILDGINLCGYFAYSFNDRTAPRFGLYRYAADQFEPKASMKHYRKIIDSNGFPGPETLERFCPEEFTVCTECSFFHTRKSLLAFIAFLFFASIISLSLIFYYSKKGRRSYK
# Experiment: co-IP; transfected A549 cells (the text says HEK-293 for Fig. 5A); lysate in TNE buffer or IP buffer (50 mM Tris-HCl, 2 mM EDTA, 250 mM NaCl, 10% glycerol, 0.5% NP-40); IP with anti-FLAG, anti-HA or anti-Myc and Protein G agarose overnight at 4 °C; immunoblot; some samples with SHANK1 overexpression, sh/si-SHANK1 or si-MDM2
substance,measurement,value
MDM2-HA (from UniProt Q00987),binding,binds

# Source: article PMC9039064
